# Screen size: about 330,000 compounds; about 7,700 (2.3%) were called active. The shares of active, inactive and inconclusive entries below differ from those in the screen. The call rests on the fitted dose curve; in most records, active means well fitted inhibition curve with a large enough effect; inconclusive means small, poorly fitted or top-dose-only effect, or effect the other way; inactive means flat fitted curve, though single readings scatter. Where the call is inconclusive, the potency comes from a doubtful curve fit.
# Experiment: qHTS screen for small molecules that inhibit ELG1-dependent DNA repair in human embryonic kidney (HEK293T) cells expressing luciferase-tagged ELG1; further: nearly all actives have a fitted effect of over 55% in size
# Details: HEK293T ELG1-luciferase reporter, luminescence, 16 h, DNA damage induced by 5-fluorouridine; series mostly up to 46.1 µM
# How it was run: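 Cells (2,000 per well) received 5-fluorouridine plus test compound or DMSO and were incubated 16 hr at 37 °C, 5% CO2. Luciferase activity was read by luminescence 30 min after ONE-Glo addition; signal suppression marked inhibition of damage-induced ELG1 function.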
# Potency means the concentration at half of the fitted maximal effect.
row,Structure (SMILES),Potency
1,Cc1ccc2c(c1)N(CC(=O)N1CCCC1)C(=O)c1cccnc1O2,"inconclusive: 29.1 µM [activator, partial curve, poor fit]"
2,COC(=O)/C=c1\sc2ncnn2c1=O,inactive
3,Cc1ccc2[nH]c(=O)c(COC(=O)c3cccs3)cc2c1,"inconclusive: 14.6 µM [activator, single point]"
4,CO/N=C(/C)CCS(=O)(=O)c1ccccc1,inactive
5,Cc1ccc(-n2cccn2)c(CN2CCC(CO)(CCc3ccccc3)CC2)c1,inactive
6,COc1cc(CN2CCCCC2)ccc1OCc1ccccc1,"inconclusive: 20 µM [activator, single point]"
7,O=C1c2ccccc2-c2n[nH]c(=O)c3ccc(N4CCCCC4)c1c23,"inconclusive: 23.1 µM [inhibitor, single point]"
8,Nc1cc(-c2ccccc2)n2c(n1)nc1ccccc12,"inconclusive: 16.4 µM [activator, partial curve]"
9,CCNC(=S)N1CCC(c2nc3ccccc3s2)CC1,inactive
10,N#Cc1ccc(-c2ccc(Cl)cc2)nc1SCC(=O)c1cccc(Cl)c1,"inconclusive: 8.2 µM [activator, partial curve]"
11,COc1ccc(-n2nc(C(=O)NCC(=O)Nc3cccc(C)n3)c3ccccc3c2=O)cc1,active: 18.4 µM
12,O=C(Nc1ccc(Cl)cc1)N(Cc1nc2ccccc2c(=O)[nH]1)Cc1cccs1,active: 18.4 µM
13,CCC(CC)COC(=O)C(C#N)c1nc2ccccc2nc1N1CCOCC1 (configuration not stated),"inconclusive: 23.1 µM [inhibitor, single point]"
14,O=C1c2ccccc2C(O)(Cc2ccccc2)N1c1ccc2c(c1)OCO2 (configuration not stated),inactive
15,CC(NS(=O)(=O)/C=C/c1ccccc1)c1ccccc1 (configuration not stated),inactive
16,CC1CCCCC1NC(=O)CN(C)S(=O)(=O)c1ccc2c(c1)c(=O)n(C)c(=O)n2C (configuration not stated),inactive
17,COc1ccc(-c2noc(CN(C(=O)C(C)(C)C)C(C)C)n2)cc1,"inconclusive: 11.6 µM [activator, partial curve, poor fit]"
18,Cc1ccc(NS(=O)(=O)c2cccc(C(=O)Nc3cccnc3)c2)c(C)c1,"inconclusive: 9.2 µM [inhibitor, partial curve, poor fit]"
19,COc1ccc(F)cc1C(=O)C1CCCN(Cc2cnc(N3CCCC3)s2)C1 (configuration not stated),"inconclusive: 29.1 µM [inhibitor, partial curve, poor fit]"
20,CCn1c(/C=C/N(C)c2ccccc2)[n+](CC)c2ccc(Cl)cc21,"inconclusive: 1.03 µM [inhibitor, full curve]"
21,N#CCCCc1cc2cc(F)ccc2cn1,"inconclusive: 20.6 µM [activator, single point]"
22,CCOC(=O)C1CCN(C(=O)c2oc3ccc(S(=O)(=O)N4CC(C)CC(C)C4)cc3c2C)CC1 (configuration not stated),active: 10.3 µM
23,CC1CCCN(C(=O)c2ccc3c(=O)n(Cc4ccc5c(c4)OCO5)c(=S)[nH]c3c2)C1 (configuration not stated),"inconclusive: 23.1 µM [inhibitor, single point]"
24,COc1ccc2nc(NC(=O)Nc3cccc4ccccc34)sc2c1,"inconclusive: 3.66 µM [activator, single point]"

# Quoted at random: 2 entries already listed, in no set order.
row,Structure (SMILES),Potency
16,CC1CCCCC1NC(=O)CN(C)S(=O)(=O)c1ccc2c(c1)c(=O)n(C)c(=O)n2C (configuration not stated),inactive
2,COC(=O)/C=c1\sc2ncnn2c1=O,inactive

# The results go on:

row,Structure (SMILES),Potency
1,O=C(N/N=C/c1ccc(Cl)cc1)c1n[nH]c2c1CCCC2,"inconclusive: 20.6 µM [activator, single point]"
2,CS(=O)(=O)N1CCN(c2ccc([N+](=O)[O-])c(SCc3ccco3)c2)CC1,"inconclusive: 29.1 µM [inhibitor, single point]"
3,CC(NC(=O)CCc1nnc(Cc2cccc(C(F)(F)F)c2)o1)C1CC1 (configuration not stated),"inconclusive: 18.3 µM [activator, partial curve]"
4,COc1cc(=O)n(C)c2c(OCC3OC(C)(C)OC3(C)C)cccc12 (configuration not stated),inactive
5,CCN(c1ccc(C(=O)CN2C(=O)NC3(CCOc4ccccc43)C2=O)cc1)S(C)(=O)=O (configuration not stated),inactive
6,C/C(=N/NC(=O)c1cnccn1)c1cccs1,"inconclusive: 16.4 µM [activator, partial curve]"
7,O=C(CCNC(=O)c1ccccc1Cl)NCC(c1ccc(F)cc1)N1CCOCC1 (configuration not stated),inactive
8,COc1ccc(S(=O)(=O)NNC(=O)c2cc3c4ccccc4n(C)c3s2)cc1,inactive
9,Cc1cc(OC(C)C(=O)NCC2CCC(C(=O)O)CC2)c2c(C)c(C)c(=O)oc2c1 (configuration not stated),inactive
10,Nn1c(-c2ccccc2)nc2cc(Cl)ccc2c1=O,inactive
11,CCn1c(/C=C/c2ccccc2)nc2ccccc21,"inconclusive: 2.06 µM [activator, full curve]"
12,Cc1ccc(C(=O)NC(c2ccccc2)C(Cl)Cl)cc1 (configuration not stated),inactive
13,CC(=O)c1ccc(NC(=O)c2cc(-c3cccs3)on2)cc1,"inconclusive: 23.1 µM [activator, single point]"
14,O=C(Nc1cccc(S(=O)(=O)NC2=NCCC2)c1)c1ccc(F)cc1F,"inconclusive: 11.6 µM [inhibitor, partial curve, poor fit]"
15,CCS(=O)(=O)Nc1cccc(C2=NN(C(=O)c3ccco3)C(c3ccco3)C2)c1 (configuration not stated),inactive
16,O=C(Nc1ccc2c(c1)OCO2)C1CC(=O)N(c2ccc3c(c2)OCCO3)C1 (configuration not stated),inactive
17,CCOc1cc(C)cc2oc(=O)cc(-c3ccccc3)c12,inactive
18,C=C(C)C1CC=C(C)/C(=N/NC(=O)COc2ccc(C)cc2)C1 (configuration not stated),inactive
19,COc1ccc([C@H]2CC(=O)C=C(c3ccc4ccn(C)c4c3)C2)cc1,"inconclusive: 5.8 µM [activator, single point]"
20,O=C1Nc2ccccc2/C1=N\N=C\C1=C(N2CCOCC2)C(=C\c2ccccc2)/CC1,"inconclusive: 14.6 µM [inhibitor, partial curve, poor fit]"
21,O=C(CCCN1C(=O)c2cccc3cccc(c23)C1=O)N1CCN(c2ccccc2)CC1,"inconclusive: 16.4 µM [inhibitor, single point]"
22,CC1CCCCN1C(=O)c1ccc(COc2ccc([N+](=O)[O-])cc2)o1 (configuration not stated),"inconclusive: 29.1 µM [inhibitor, single point]"
23,O=C(O)C1=CC[C@@H](c2ccc(Cl)cc2)N(S(=O)(=O)c2ccc(Cl)cc2)C1,inactive

# — PubChem BioAssay AID504467 (National Center for Advancing Translational Sciences (NCATS), 2011)
